In paper PMC10938136:
No constants are given. Whether binding was seen depends on the method and setting. A result given as binding can be weak or reduced; the word gives no strength. For part of these data: Binding seen in cells or lysates may run through a third protein.

By UniProt entry, the sequences of proteins in these tests, tags left out. Where a name states a change or a piece, a line headed by the entry shows the natural chain unless it says otherwise.
UniProt F2QY05: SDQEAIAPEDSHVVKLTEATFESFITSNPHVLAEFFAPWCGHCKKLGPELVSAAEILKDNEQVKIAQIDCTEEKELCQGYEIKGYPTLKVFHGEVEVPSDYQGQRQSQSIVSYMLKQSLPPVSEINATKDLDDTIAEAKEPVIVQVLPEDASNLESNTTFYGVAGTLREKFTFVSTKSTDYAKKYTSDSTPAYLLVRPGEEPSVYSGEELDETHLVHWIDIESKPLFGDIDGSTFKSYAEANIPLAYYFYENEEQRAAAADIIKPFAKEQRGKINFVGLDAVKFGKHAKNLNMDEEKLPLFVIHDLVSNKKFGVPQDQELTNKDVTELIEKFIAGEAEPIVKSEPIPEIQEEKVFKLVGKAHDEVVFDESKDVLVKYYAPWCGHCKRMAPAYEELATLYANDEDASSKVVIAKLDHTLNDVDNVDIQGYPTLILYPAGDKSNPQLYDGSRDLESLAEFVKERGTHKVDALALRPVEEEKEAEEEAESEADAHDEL

Assays:
[1] = target: Komagataella phaffii Ero1 (Komagataella phaffii) (UniProt F2QNN1); test: pull-down; co-expression of Erp41 and Ero1 in the presence of KpPDI CyDisCo (Pdi1, Ero1 and Erp41 together) in E. coli, IMAC on HisPur cobalt agarose, SDS-PAGE; Fig. 1 lane 7
[2] = target: Komagataella phaffii Ero1 (Komagataella phaffii) (UniProt F2QNN1); test: NEM trapping and non-reducing SDS-PAGE; IMAC eluate of co-expressed Ero1 and Pdi1 treated with 25 mM NEM, SDS-PAGE without reducing agent; Fig. 1 lane 1
[3] = target: Komagataella phaffii Ero1 (Komagataella phaffii) (UniProt F2QNN1); test: pull-down; co-expression in E. coli cytoplasm (small scale, 20 °C), cleared lysate on HisPur cobalt agarose (IMAC), elution with 50 mM EDTA in 20 mM sodium phosphate, 150 mM NaCl, pH 7; SDS-PAGE, Coomassie; Fig. 1 lanes 1, 2, 5, 6

Measured: binding

Komagataella phaffii Pdi1 (from UniProt F2QY05) (enzyme)
binds: [1] | [2] | [3]
